{
  "sequences": {"note": "Chains of the proteins cited; added tags and fusions are not shown. Lines headed by an entry give the natural chain unless they say otherwise; changes in a name come on top.", "UniProt P08648": "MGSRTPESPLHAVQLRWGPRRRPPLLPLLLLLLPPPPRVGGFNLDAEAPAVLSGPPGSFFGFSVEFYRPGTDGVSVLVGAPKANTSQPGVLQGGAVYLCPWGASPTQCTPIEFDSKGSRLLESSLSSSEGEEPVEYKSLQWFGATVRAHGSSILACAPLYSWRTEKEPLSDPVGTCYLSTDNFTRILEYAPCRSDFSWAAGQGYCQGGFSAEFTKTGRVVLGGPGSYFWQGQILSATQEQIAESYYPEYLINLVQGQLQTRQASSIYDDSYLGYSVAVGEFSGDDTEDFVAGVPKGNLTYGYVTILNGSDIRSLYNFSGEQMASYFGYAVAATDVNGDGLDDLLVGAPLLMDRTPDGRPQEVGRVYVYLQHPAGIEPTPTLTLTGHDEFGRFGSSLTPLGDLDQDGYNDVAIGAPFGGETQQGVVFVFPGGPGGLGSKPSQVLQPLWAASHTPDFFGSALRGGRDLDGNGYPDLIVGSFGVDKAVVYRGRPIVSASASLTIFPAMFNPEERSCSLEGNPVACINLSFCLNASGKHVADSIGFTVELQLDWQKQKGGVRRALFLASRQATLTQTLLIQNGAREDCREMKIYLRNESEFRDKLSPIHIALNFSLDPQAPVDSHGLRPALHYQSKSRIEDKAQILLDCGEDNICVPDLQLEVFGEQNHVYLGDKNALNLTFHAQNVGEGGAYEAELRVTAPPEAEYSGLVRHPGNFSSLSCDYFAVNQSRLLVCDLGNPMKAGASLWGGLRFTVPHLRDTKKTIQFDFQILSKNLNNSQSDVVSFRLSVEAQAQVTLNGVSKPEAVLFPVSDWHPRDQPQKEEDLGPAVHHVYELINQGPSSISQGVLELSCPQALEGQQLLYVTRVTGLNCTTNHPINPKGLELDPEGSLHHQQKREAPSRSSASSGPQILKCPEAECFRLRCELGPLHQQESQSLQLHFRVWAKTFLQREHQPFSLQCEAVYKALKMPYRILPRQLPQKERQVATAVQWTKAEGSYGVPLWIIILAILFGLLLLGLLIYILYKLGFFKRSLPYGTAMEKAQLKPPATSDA"},
  "source": "paper PMC10803403",
  "target": "T1, 6×His Tag S.a-FnBpA protein (fibronectin binding protein FnBpA of Staphylococcus aureus) (S. aureus) (UniProt P14738)",
  "T1 sequence": "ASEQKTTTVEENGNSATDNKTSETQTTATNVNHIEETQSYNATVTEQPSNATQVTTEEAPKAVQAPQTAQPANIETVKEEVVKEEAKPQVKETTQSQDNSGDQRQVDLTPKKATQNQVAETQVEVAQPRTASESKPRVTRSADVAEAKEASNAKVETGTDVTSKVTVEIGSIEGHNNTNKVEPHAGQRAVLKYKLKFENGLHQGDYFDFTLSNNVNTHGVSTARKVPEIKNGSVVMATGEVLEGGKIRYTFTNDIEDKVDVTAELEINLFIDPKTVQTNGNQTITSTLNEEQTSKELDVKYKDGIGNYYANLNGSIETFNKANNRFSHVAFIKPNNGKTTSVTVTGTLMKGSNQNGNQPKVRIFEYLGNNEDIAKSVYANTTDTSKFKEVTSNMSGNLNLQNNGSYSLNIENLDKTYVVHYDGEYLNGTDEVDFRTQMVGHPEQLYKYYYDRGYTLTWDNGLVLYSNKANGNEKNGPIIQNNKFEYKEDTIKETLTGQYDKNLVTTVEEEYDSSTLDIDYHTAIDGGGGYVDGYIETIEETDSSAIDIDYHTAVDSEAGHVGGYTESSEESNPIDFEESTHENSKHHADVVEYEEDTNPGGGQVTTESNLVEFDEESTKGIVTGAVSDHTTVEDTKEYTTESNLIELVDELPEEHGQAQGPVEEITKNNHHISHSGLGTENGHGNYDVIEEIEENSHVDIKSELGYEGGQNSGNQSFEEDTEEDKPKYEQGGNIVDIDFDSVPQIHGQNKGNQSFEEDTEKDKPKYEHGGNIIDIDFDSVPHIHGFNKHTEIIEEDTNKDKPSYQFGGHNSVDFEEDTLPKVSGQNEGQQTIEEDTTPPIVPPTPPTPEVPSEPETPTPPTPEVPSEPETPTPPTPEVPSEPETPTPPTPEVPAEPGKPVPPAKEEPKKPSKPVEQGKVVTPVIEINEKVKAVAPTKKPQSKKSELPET",
  "assay": "pull-down; FnBps as bait, integrin α5 and β1 chains detected; with/without Fn protein; no further conditions told",
  "note": "No constants are given. Whether binding was seen depends on the method and setting. Binding seen in cells or lysates may run through a third protein. Some results given as binding are weak or reduced against the parent protein; the word gives no strength. Where a sequence is shown, tags or fusion partners need not be part of it.",
  "data": [
    {"substance": "integrin α5β1 (from UniProt P08648 42-1049; P05556 21-798) (complex)", "values": [
      {"measurement": "binding", "value": "binds"}
    ]}
  ]
}
